Measurements reported in PubChem BioAssay AID1259254 (NCATS, 2017)
This is an unselected part of about 59,000 reagents. In the full data, about 1,550 (2.6%) are marked active. 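G2 share is only a proxy for re-replication; each gene was hit by three separate siRNAs, and active genes were retested.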 A number with no mark means an inactive call. Reagents against one gene are numbered here. Further read-outs or replicates are left out here. Not stated in the record: the amount of reagent.

- Screen: 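Finding genes that stop cells copying their DNA twice in one cycle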 (primary screen)
- System: human HCT116 colorectal cancer cells
- Knock-down reagent: single siRNA against human genes
- Duration: 3 days
- Read-out: 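Imaged Hoechst DNA stain sorts each cell into a cycle phase by DNA amount; per plate, G2 fraction set to 0% for non-targeting and 100% for GMNN siRNA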
- Scale: G2 robust z-score: higher = more G2 cells, more excess DNA replication
- Rule for the call: 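Active siRNAs have a G2 robust z of 5 or more median absolute deviations over the median, which in these data means about 38% or higher of GMNN control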

With knock-down of CD244 (CD244 molecule) #1, the screen gave G2 robust z-score 0.735.
CD244 (CD244 molecule) #2 gave G2 robust z-score -0.336.
Against CD244 (CD244 molecule) #3 the deposit lists G2 robust z-score 2.97.
HTR3E (5-hydroxytryptamine receptor 3E) #1 showed G2 robust z-score 4.31.
Depletion of HTR3E (5-hydroxytryptamine receptor 3E) #2 gave: G2 robust z-score -0.285.
After knock-down of HTR3E (5-hydroxytryptamine receptor 3E) #3, the screen gave G2 robust z-score -1.43.
Knock-down of HEPHL1 (hephaestin like 1) #1 came out at: G2 robust z-score -0.338.
HEPHL1 (hephaestin like 1) #2 showed G2 robust z-score -0.593.
HEPHL1 (hephaestin like 1) #3 scored G2 robust z-score 0.303.
Depletion of UBE3C (ubiquitin protein ligase E3C) #1 resulted in: G2 robust z-score 2.34.
UBE3C (ubiquitin protein ligase E3C) #2 gave G2 robust z-score -0.00272.
UBE3C (ubiquitin protein ligase E3C) #3 scored G2 robust z-score -0.229.
Against WDR76 (WD repeat domain 76) #1, the entry reads G2 robust z-score -1.04.
WDR76 (WD repeat domain 76) #2 showed G2 robust z-score -0.576.
WDR76 (WD repeat domain 76) #3 scored G2 robust z-score -0.163.
Silencing of ZC3HAV1L (ZC3HAV1 like) #1 came out at: G2 robust z-score 0.289.
ZC3HAV1L (ZC3HAV1 like) #2 gave G2 robust z-score -0.0475.
Knock-down of ZC3HAV1L (ZC3HAV1 like) #3 gave: G2 robust z-score 0.948.
Silencing of ADRA2A (adrenoceptor alpha 2A) #1 gave: G2 robust z-score -1.28.
For ADRA2A (adrenoceptor alpha 2A) #2, the values are G2 robust z-score -0.66.
After knock-down of ADRA2A (adrenoceptor alpha 2A) #3, the record shows G2 robust z-score 5.33 (active).
PAOX (polyamine oxidase) #1 gave G2 robust z-score 0.623.
Depletion of PAOX (polyamine oxidase) #2 resulted in: G2 robust z-score 1.13.
PAOX (polyamine oxidase) #3 gave G2 robust z-score -0.26.
TCOF1 (treacle ribosome biogenesis factor 1) #1 showed G2 robust z-score 1.72.
Against TCOF1 (treacle ribosome biogenesis factor 1) #2, the values are G2 robust z-score 0.125.
For TCOF1 (treacle ribosome biogenesis factor 1) #3 the deposit lists G2 robust z-score 1.36.
Against LOC653513 (phosphodiesterase 4D interacting protein-like) #1, the entry reads G2 robust z-score 0.593.
Silencing of LOC653513 (phosphodiesterase 4D interacting protein-like) #2 came out at: G2 robust z-score 0.38.
Silencing of LOC653513 (phosphodiesterase 4D interacting protein-like) #3 resulted in: G2 robust z-score 0.208.
